The entries are a selection whose mix differs from that of the whole data set. Calls are pooled over several reports, among them a noisy single-well screen. The list shows a part of the results. This is one part of the list.

Consider twelve compounds from the M2OR odorant receptor database.

Settings in all cases: stereoisomer not certain
Assay [1] deals with T1, OR5AN1 (Homo sapiens) (UniProt Q8NGI8).
T1 sequence (whole entry): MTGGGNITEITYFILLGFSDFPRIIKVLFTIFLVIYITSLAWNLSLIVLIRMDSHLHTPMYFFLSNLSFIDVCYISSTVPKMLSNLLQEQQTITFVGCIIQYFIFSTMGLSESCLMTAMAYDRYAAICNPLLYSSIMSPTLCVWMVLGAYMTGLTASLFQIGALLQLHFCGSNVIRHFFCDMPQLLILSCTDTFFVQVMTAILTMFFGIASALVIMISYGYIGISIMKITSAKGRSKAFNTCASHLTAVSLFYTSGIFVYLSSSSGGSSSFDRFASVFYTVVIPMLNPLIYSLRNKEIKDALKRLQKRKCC
The gist of the method: (§1)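 Assay methods differ from source to source, frequently being transient luciferase assays in mammalian cell lines. For each receptor–molecule pair, the label responsive (active) applies when the original authors judged the measured signal statistically different from baseline, and non-responsive (inactive) applies otherwise.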

Assay [2] concerns the target T2, OR5AR1 (Homo sapiens) (UniProt Q8NGP9).
T2 sequence (whole entry): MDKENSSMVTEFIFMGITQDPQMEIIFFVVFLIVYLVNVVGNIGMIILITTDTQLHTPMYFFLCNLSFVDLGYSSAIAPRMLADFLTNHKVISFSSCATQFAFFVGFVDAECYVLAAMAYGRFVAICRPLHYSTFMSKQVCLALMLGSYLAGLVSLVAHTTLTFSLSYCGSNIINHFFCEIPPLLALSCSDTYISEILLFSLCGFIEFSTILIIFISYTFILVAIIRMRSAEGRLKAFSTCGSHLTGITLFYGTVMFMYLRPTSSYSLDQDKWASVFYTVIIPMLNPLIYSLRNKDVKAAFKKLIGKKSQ
The method, boiled down: as §1

Assay [3] addresses T3, OR5AS1 (Homo sapiens) (UniProt Q8N127).
T3 sequence (whole entry): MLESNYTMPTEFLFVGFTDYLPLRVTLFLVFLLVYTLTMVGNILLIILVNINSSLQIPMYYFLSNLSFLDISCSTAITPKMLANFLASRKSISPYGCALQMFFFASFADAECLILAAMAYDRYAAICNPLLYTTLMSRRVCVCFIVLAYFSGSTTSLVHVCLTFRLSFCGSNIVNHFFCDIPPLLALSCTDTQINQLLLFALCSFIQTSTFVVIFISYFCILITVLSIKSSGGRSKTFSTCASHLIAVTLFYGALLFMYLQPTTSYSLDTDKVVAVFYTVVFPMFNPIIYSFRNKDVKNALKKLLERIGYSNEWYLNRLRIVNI
The method, boiled down:
as §1

The target of assay [4] is T4, OR5AU1 (Homo sapiens) (UniProt Q8NGC0).
T4 sequence (whole entry): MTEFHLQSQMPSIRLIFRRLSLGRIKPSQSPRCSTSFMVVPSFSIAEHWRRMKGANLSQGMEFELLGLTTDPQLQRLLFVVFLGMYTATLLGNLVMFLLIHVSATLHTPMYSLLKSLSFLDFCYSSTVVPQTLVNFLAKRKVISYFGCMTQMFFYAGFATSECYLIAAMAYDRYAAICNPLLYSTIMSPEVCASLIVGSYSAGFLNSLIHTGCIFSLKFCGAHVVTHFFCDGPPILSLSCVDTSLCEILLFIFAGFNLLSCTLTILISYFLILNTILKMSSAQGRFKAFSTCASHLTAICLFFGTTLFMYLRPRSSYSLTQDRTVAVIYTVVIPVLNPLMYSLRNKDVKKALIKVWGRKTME
The gist of the method: as §1

Assay [5] addresses T5, OR5B17 (Homo sapiens) (UniProt Q8NGF7).
T5 sequence (whole entry): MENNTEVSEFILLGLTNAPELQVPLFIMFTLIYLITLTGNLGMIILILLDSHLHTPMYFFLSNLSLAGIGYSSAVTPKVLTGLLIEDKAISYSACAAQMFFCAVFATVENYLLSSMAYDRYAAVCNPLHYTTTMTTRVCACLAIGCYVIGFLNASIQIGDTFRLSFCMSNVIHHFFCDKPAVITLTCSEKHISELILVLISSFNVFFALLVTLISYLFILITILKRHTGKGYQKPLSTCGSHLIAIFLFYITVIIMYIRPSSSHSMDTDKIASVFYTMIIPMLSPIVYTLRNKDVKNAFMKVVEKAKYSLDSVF
The gist of the method: as §1

For assay [6], the system named is T6, OR5B2.
T6 sequence (whole entry): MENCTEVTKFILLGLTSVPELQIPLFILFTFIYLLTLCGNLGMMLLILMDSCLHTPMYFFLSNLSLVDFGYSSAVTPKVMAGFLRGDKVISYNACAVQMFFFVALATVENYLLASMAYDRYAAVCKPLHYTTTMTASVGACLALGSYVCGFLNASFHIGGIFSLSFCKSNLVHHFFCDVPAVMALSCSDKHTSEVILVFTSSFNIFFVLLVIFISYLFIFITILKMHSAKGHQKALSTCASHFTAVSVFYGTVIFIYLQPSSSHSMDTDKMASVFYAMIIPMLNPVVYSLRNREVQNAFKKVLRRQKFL
The gist of the method: as §1

Assay [7] addresses T7, OR5B3 (Homo sapiens) (UniProt Q8NH48).
T7 sequence (whole entry): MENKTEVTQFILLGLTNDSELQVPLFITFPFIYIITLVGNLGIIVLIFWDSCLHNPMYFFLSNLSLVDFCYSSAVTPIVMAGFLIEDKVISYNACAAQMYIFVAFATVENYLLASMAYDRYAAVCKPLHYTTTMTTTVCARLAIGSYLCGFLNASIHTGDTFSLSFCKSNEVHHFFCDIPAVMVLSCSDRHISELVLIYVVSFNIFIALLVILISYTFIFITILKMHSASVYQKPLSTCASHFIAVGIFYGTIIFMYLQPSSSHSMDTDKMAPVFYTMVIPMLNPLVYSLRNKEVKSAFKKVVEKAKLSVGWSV
The gist of the method: as §1

For assay [8], the system named is T8, OR5BC.
T8 sequence (whole entry): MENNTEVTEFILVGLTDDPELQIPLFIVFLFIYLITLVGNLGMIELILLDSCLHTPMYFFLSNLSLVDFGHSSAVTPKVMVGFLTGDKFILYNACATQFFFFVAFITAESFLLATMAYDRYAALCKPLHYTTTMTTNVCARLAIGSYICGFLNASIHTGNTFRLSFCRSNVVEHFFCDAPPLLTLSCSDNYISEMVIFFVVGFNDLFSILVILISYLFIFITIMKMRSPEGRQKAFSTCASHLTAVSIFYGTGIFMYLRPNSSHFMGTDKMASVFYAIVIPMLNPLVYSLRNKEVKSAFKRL
The method, boiled down:
as §1

Assay [9] relates to T9, OR5BL.
T9 sequence (whole entry): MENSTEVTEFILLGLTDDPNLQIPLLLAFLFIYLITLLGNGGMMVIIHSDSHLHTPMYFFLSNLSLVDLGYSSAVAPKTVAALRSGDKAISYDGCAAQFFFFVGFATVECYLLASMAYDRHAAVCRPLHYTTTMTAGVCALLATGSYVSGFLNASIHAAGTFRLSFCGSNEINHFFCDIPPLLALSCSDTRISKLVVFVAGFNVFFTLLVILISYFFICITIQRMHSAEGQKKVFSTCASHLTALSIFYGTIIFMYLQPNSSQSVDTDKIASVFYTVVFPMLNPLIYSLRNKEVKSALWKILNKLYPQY
The gist of the method: as §1

Assay [10] addresses T10, OR5C1 (Homo sapiens) (UniProt Q8NGR4).
T10 sequence (whole entry): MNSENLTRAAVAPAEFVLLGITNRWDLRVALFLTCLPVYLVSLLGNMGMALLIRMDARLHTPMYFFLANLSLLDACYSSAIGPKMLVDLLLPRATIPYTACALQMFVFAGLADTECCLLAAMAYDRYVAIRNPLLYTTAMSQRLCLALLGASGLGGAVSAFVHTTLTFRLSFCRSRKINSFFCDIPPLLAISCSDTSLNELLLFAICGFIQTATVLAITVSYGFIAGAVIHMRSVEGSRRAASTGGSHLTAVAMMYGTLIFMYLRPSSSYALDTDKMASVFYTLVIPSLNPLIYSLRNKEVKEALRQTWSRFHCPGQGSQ
The gist of the method: as §1

Assay [11] concerns T11, OR5DD.
T11 sequence (whole entry): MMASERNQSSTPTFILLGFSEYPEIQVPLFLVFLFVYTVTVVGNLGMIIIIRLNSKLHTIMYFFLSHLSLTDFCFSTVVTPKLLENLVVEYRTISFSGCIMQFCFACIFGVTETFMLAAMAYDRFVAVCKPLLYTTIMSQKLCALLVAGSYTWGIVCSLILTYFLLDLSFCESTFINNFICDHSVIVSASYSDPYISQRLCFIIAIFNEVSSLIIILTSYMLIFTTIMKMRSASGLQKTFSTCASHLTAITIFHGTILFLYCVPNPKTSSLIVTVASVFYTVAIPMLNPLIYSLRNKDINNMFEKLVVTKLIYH
The gist of the method: as §1

The subject of assay [12] is T12, OR5DE.
T12 sequence (whole entry): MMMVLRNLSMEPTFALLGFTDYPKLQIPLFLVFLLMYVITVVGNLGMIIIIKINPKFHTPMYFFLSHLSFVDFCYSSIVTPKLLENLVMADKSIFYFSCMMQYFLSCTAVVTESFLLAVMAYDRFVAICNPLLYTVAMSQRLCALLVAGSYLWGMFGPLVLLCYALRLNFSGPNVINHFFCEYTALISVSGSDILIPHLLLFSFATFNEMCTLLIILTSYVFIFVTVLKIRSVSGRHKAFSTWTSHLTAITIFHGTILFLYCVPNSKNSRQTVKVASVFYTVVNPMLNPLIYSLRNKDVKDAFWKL
The method, boiled down:
as §1

As for `CCCCO`, the “odorant receptor agonist call” value in [1], in assay [2], in [3], in assay [4], in assay [5] and in assay [6] was “inactive” throughout. Further, the “odorant receptor agonist call” value in [7], in assay [8], in [9], in assay [10], in assay [11] and in assay [12] was “inactive” in each case.

Turning to `CC(C)=CCCC(C)=CC=O`, the “odorant receptor agonist call” value in assay [1], in assay [2], in [3], in assay [4], in assay [5] and in assay [6] was “inactive” each time. Moreover, the “odorant receptor agonist call” value in assay [7], in assay [8], in assay [9], in [10], in assay [11] and in [12] was “inactive” in each case.

On to `CC=Cc1ccc(O)c(OC)c1`, for which the “odorant receptor agonist call” value in [1], in assay [3], in assay [4], in [5], in assay [6] and in assay [9] was “inactive” each time. The “odorant receptor agonist call” value in [10], in assay [11] and in assay [12] was “inactive” each time. For the same compound, the “odorant receptor agonist call” value in [2], in assay [7] and in assay [8] was “active” throughout.

Turning to `CC(C)C(=O)O`, the “odorant receptor agonist call” value in [1], in assay [2], in assay [3], in assay [4], in assay [5] and in assay [6] was “inactive” throughout. The “odorant receptor agonist call” value in assay [7], in assay [8], in [9], in assay [10], in assay [11] and in assay [12] was “inactive” each time.

In the case of `CC1CCC(C(C)C)C(O)C1` (stereo not drawn), the “odorant receptor agonist call” value in assay [1], in [2], in [3], in [4], in assay [5] and in assay [6] was “inactive” throughout. The “odorant receptor agonist call” value in [7], in assay [8], in assay [9], in assay [10], in [11] and in assay [12] was “inactive” throughout.

Regarding `c1ccc(Oc2ccccc2)cc1`, the “odorant receptor agonist call” value in assay [1], in assay [2], in assay [3], in assay [4], in assay [5] and in [6] was “inactive” each time. Besides, the “odorant receptor agonist call” value in [7], in [8], in [9], in assay [10], in [11] and in [12] was “inactive” throughout.

For the compound `CCCCCOC(C)=O`, the “odorant receptor agonist call” value in assay [1], in assay [2], in assay [3], in assay [4], in [5] and in [6] was “inactive” in each case. The “odorant receptor agonist call” value in [7], in assay [8], in assay [9], in [10] and in assay [11] was “inactive” each time.

As for `CC(C)C=O`, the “odorant receptor agonist call” value in [1], in assay [2], in assay [3], in assay [4], in assay [5] and in assay [6] was “inactive” in each case. The “odorant receptor agonist call” value in [7], in assay [8], in assay [9], in [10], in assay [11] and in [12] was “inactive” throughout.

As for `C=CC(C)(O)CCC=C(C)C` (stereo not drawn), the “odorant receptor agonist call” value in [1], in assay [2], in assay [3], in assay [4], in assay [5] and in assay [6] was “inactive” each time. Further, the “odorant receptor agonist call” value in assay [7], in [8], in [9], in assay [10], in [11] and in assay [12] was “inactive” each time.

Consider `C=CCc1ccc(OC)c(OC)c1`, for which the “odorant receptor agonist call” value in [1], in assay [2], in assay [3], in assay [4], in assay [5] and in assay [6] was “inactive” in each case. Besides, the “odorant receptor agonist call” value in assay [7], in assay [8], in [9], in assay [10], in assay [11] and in assay [12] was “inactive” each time.

Turning to `CC12C=CCC1C1CCC3=CC(=O)CCC3(C)C1CC2` (stereo not drawn), the “odorant receptor agonist call” value in assay [1], in assay [2], in assay [3], in assay [4], in assay [5] and in [6] was “inactive” throughout. For the same compound, the “odorant receptor agonist call” value in [7], in assay [8], in assay [9], in [10], in assay [11] and in assay [12] was “inactive” each time.

On to `COc1cc(C=O)ccc1O`, for which the “odorant receptor agonist call” value in assay [1], in assay [2], in [3], in assay [4], in assay [5] and in assay [6] was “inactive” throughout. In addition, the “odorant receptor agonist call” value in [7], in assay [8], in [9], in assay [10], in assay [11] and in [12] was “inactive” each time.
